Data from article PMC10543426, “The PALB2 DNA-binding domain is an intrinsically disordered recombinase” (Research Square, 2023).
The comparison behind a weaker result is the experiment's own reference, which may not be listed here. Protein sequences can lack the tags named with them.

Biological target: T1, Δ40-DBD (Homo sapiens) (UniProt Q86YC2)
T1 sequence (looked up, limits assumed): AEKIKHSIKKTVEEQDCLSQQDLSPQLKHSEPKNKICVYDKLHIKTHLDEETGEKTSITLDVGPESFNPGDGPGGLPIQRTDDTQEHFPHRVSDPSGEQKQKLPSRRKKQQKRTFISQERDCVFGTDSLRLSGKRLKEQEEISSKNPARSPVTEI
Test: smFRET
Conditions: free DNA remains at 10 uM protein, AUC of DNA complexes: 0.1 M NaCl, 20 C, recombinant protein, label: 5' Cy3, Cy5 at position 50, single-stranded DNA

Sequence: TTTTTTTTTTTTTTTTTTTTTTTTTTTTTTTTTTTTTTTTTTTTTTTTTT [Cy3-dT50-Cy5]
- binding result: binds more weakly
